Assay results reported in patent US10702592B2, “Peptides and combination of peptides for use in immunotherapy against NHL and other cancers” (Immatics Biotechnologies GmbH, priority 2016, dated 2020).

What was measured:
[1] = test system: other tumor types (tumor samples vs normal tissues); experiment: LC-MS detection / over-presentation of peptides on additional tumor types; parameters: species or system human; conditions: for Other relevant organs/diseases: additional tumor types on which the peptide was found: over-presented on more than 5% of measured tumor samples, or presented on more than 5% with ratio of geometric means tumor vs normal tissues larger than 3; for Other relevant organs / diseases (additional tumor types with over-presentation): over-presented on >5% of measured tumor samples, or presented on >5% with ratio of geometric means tumor vs normal >3
NHL samples = experiment: Identification and label-free LC-MS quantitation of HLA-presented peptides: presentation profile/score, NHL vs normal tissues; parameters: species or system human; key: very highly over-presented on tumors compared to a panel of normal tissues (+++); highly over-presented on tumors compared to a panel of normal tissues (++); over-presented on tumors compared to a panel of normal tissues (+); conditions: NHL tumors compared to a panel of normal tissues

Substance	Other relevant organs/diseases [1]	Peptide Presentation (NHL samples)	Other relevant organs / diseases (additional tumor types with over-presentation) [1]
174 (VLVEITDVDFAA; listed as Homo sapiens) [compound 174]	Melanoma	+++	
108 (YLAPENGYLM; listed as Homo sapiens) [compound 108]	SCLC, CRC, HCC, BRCA, Melanoma, OC, Urinary bladder cancer, Gallbladder Cancer, Bile Duct Cancer	+++	Uterine Cancer, AML, HNSCC
2 (LLSEETPSA; listed as Homo sapiens) [compound 2]	NSCLC, SCLC, CLL, AML, BRCA, Melanoma, Urinary bladder cancer, Uterine Cancer	+++	HNSCC
212 (FLIGQGAHV; listed as Homo sapiens) [compound 212]	CLL, AML, Melanoma	+	HCC
78 (AMEEAVAQV; listed as Homo sapiens) [compound 78]	RCC, Gallbladder Cancer, Bile Duct Cancer	+++	
216 (KVVSNLPAI; listed as Homo sapiens) [compound 216]	AML, Gallbladder Cancer, Bile Duct Cancer	+++	RCC
62 (ALAPYLDLL; listed as Homo sapiens) [compound 62]	AML, Melanoma, Urinary bladder cancer	+++	
25 (FLDTSNQHLL; listed as Homo sapiens) [compound 25]	CLL	+++	
239 (VLIDDTVLL; listed as Homo sapiens) [compound 239]	HCC, AML, Melanoma	++	Uterine Cancer
171 (TLLDVISAL; listed as Homo sapiens) [compound 171]	AML	+++	HNSCC
299 (RLLEEEGVSL; listed as Homo sapiens) [compound 299]	CRC, AML, BRCA	+	Melanoma
111 (YLLDTLLSL; listed as Homo sapiens) [compound 111]		+++	AML, HNSCC
204 (RLCDIVVNV; listed as Homo sapiens) [compound 204]	Melanoma	+++	
65 (NLTDVSPDL; listed as Homo sapiens) [compound 65]	CLL, Uterine Cancer	+++	
110 (YQYPFVLGL; listed as Homo sapiens) [compound 110]	Uterine Cancer	+++	HNSCC
104 (VLLGLPLLV; listed as Homo sapiens) [compound 104]	CLL, AML	+++	
71 (VLLDYVGNVQL; listed as Homo sapiens) [compound 71]		+++	HNSCC
114 (GLSDISPST; listed as Homo sapiens) [compound 114]	CLL, Uterine Cancer	+++	
100 (RLIRTIAAI; listed as Homo sapiens) [compound 100]	RCC	+++	
291 (KIIDTAGLSEA; listed as Homo sapiens) [compound 291]	CLL	+++	HNSCC
